From paper PMC12713375 come the findings set out here.

Results are given in words; binding and its absence hold for the method and conditions named. Binding calls can cover weak binding; strength is not graded here.

Assay [1] concerns the target full-length FlhF, purified (P. aeruginosa PAO1). As to the kind of experiment: dynamic light scattering; 0.01 mM each of FlhF and FliG, 25 mM Tris pH 8, 10 mM MgCl2; FlhF preincubated on ice for 40 minutes with 10-fold GMPPNP, then 45 minutes with FliG; both purified.
Assay [2] shares this target. Nature of the assay: dynamic light scattering; 0.01 mM each of FlhF and FliG (1:1), 25 mM Tris pH 8, 10 mM MgCl2; no nucleotide; hydrodynamic diameters, Malvern Zetasizer; both purified.

B1: full-length FliG, purified (protein, UniProt Q51464 1-338)
chain: MSENRLAAKLTKVDKAAILLLSLGETDAAQVLRHMGPKEVQRVGVAMASMRNVHREQVEQVMGEFVEVVGDQTSLGVGADGYIRKMLTQALGEDKANNLIDRILLGGSTSGLDSLKWMEPRAVADVIRYEHPQIQAIVVAYLDPDQAAEVLSHFDHKVRLDIVLRVSSLNTVQPSALKELNLILEKQFAGNSNATRTTMGGVKRAADIMNYLDSSIEGQLMDSIREVDEDLSGQIEDLMFVFDNLADVDDRGIQALLREVSSDVLVLALKGSDEAIREKVFKNMSKRAAELLRDDLEAKGPVRVSEVEGAQKEILTIARRMAESGDIVLGGKGGEEMI
Turning to B1, the binding entry in assay [1] and in assay [2] was “binds” each time.
